This is an account of results in PubChem BioAssay AID1347426 (Functional Genomics Laboratory (NCATS/FGL), 2020).

The whole screen tested about 31,000 sequences, of which about 1,400 (4.5%) were called active.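 Rule for the calls: active = median seed-adjusted z-score above 1 or below -1; inactive = the rest.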 The list shows a part of the results.

The nature of the test: Novel Modifiers of Survival Motor Neuron (SMN) Protein: Gene Identification via Genome-wide siRNA Screen.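 Note: luminescence tracks full-length SMN protein made from the SMN2 reporter.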 To be noted: HEK293T SMN2-luciferase reporter, siRNA knockdown, 72 h; actives lie on both sides. In short, it runs like this: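 HEK293T cells stably expressing an SMN2 splicing/cDNA-luciferase reporter were reverse-transfected with a druggable-genome siRNA library and read by luminescence at 72 hours; hits defined by MAD score above 1.0 or below -1.0.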
As to GGAUGGACCUGACUUUCAATT against TXN2, the median seed-adjusted z-score was inactive: 0.87. Take GGCUGUCCGACUCAACAUATT against SIGLEC12: the median seed-adjusted z-score is inactive: 0.226. Consider CUGUUGUAAUGACAUCAUUTT against ELF2, for which the median seed-adjusted z-score was inactive: -0.514.

As for ACAUUACUCUGGGAUUUAUTT against LARGE, the median seed-adjusted z-score is inactive: -0.436. For the sequence GGCAAUCCGGGAAGACUAATT against ADAR, the median seed-adjusted z-score was inactive: 0.267. For AGCUAGACCUGUGCAAAGATT against IRX5, the median seed-adjusted z-score is inactive: -0.373. The same measure for GCGUCGGAGUUUCGAAAGATT against ADM: inactive: 0.65.

CCAUGUCCCAGGAAGCACATT against TCAP: the median seed-adjusted z-score is inactive: -0.177. CCAACUACUCCCUCAAGUATT against CRLF1: the median seed-adjusted z-score was inactive: -0.45.

For CGUGUACCCGUUUGACUUUTT against SGSH, the median seed-adjusted z-score was inactive: 0.383. On to GAGAGACCAUUGUCCAGCUTT against SRPK3, for which the median seed-adjusted z-score is inactive: -0.643. Turning to GAGUGUCAUGGACCUGAUATT against LCN6, the median seed-adjusted z-score was inactive: 0.584.

On to GAAUGAACUCUUUACAGAUTT against MLYCD, for which the median seed-adjusted z-score is inactive: -0.154. With GGACUUAUAUAGGGAUGUATT against ZFP14, the median seed-adjusted z-score was inactive: 0.263.

Consider AGUUCACGGUGAUCAGGAATT against ZBTB46, for which the median seed-adjusted z-score is inactive: 0.0546. The value for CCAUGUGAGUGUAAGCAGUTT against ZNF490 was inactive: 0.00954. Regarding GGAUCAUGCCUAAUCCACATT against HSD17B7, the median seed-adjusted z-score was inactive: 0.0836. The value for GCCUAGAGGACUACAAGAATT against FZD8 was inactive: -0.177; that for AAGAUGCUCUCCCACCUAATT against POLD4 was inactive: 0.225; that for AGAUUUUCAUUAGACCUCUTT against PTGDR was inactive: -0.158. The same measure for GGACUGUAUGUACUUCGAUTT against JAK2: inactive: 0.163; for UGAUAUUGCUUAGUCCAUUTT against PRLHR: inactive: 0.

As for GCAUAGUUGACGAACCUUUTT against NPAS2, the median seed-adjusted z-score was inactive: 0.222.

Turning to ACUCCUUUCUGGGUCCUAATT against PTGES, the median seed-adjusted z-score was inactive: -0.0851. Turning to AGUUUCAUUUCAAUAAGUATT against HOXD1, the median seed-adjusted z-score is inactive: 0.144. On to GCAUUAAUAACAUUACGUUTT against ZNF236, for which the median seed-adjusted z-score is inactive: 0.683. Take GCCUUAACCGAAUUCCUCATT against LIPA: the median seed-adjusted z-score was inactive: 0.535. Take AGCUGUUGAUUGAACAUGATT against LIMK2: the median seed-adjusted z-score was inactive: -0.0288. The same measure for GAUACAUCCAUUAUACUUUTT against GNAI1: inactive: -0.233.

As to AAAUCUUCGUGAACUUGGATT against MMD, the median seed-adjusted z-score was inactive: 0.193. The same measure for AUGCUGAAAUUAUUAGGAATT against UBE2R2: inactive: 0.

Take UGAUCUAUACGGCUUUCAATT against HTR5A: the median seed-adjusted z-score is inactive: -0.0687.

On to GCACCCAACUGAGAUCCGATT against ALPP, for which the median seed-adjusted z-score was inactive: 0. Consider GCAUACAUCAUGACCGUCATT against DUSP22, for which the median seed-adjusted z-score was inactive: 0. As to GCCUGGUGCUAAUCCAUAATT against ZNF408, the median seed-adjusted z-score is inactive: 0.00381. The value for CCAGAGACUUCAUCGUAGATT against ZNF660 was inactive: 0.251. UGAGCAUGUUUUCCGAUGATT against HSPB7: the median seed-adjusted z-score is inactive: -0.288. As to CAUGUUCAAGGACAACUUUTT against TUBG1, the median seed-adjusted z-score is inactive: 0.618. As for GGUCUAUCUUCGAGAAUAATT against SULT6B1, the median seed-adjusted z-score was inactive: 0. For the sequence GCCUAGAGGAAAUACAGGATT against DDX50, the median seed-adjusted z-score is inactive: 0.359. In the case of GGAAGUACGUUCCAUACAATT against GALNT17, the median seed-adjusted z-score was inactive: 0.392. The same measure for GACCCAAACAGGAACGCAATT against SCN2A: inactive: 0; for CCCUUAAUUUUGUAACAGATT against SLC7A6: inactive: -0.0877. The value for CCAGUGGAGUGGUAUCUAUTT against RBBP5 was inactive: 0.169; that for CACGCUUCAUUAAUCAUCATT against ZNF818 was inactive: -0.223; that for CCAGCCGUGUUGUAGCUAATT against S100B was inactive: 0.862. On to GUCUACAAAUGGUUUCUUUTT against RNF175, for which the median seed-adjusted z-score is inactive: 0.127.

With ACAACCUCUUAGACACGUATT against QSOX2, the median seed-adjusted z-score is inactive: 0.498. Turning to GGAACACUCAUGACUGUAATT against ZNF426, the median seed-adjusted z-score is inactive: 0.2.

Take CAAUUAGGAUGACCAUUGATT against GABRE: the median seed-adjusted z-score is inactive: 0.211.

As to GGAGACGAGUGUAAAAACATT against CPM, the median seed-adjusted z-score was inactive: 0.549.

In the case of GAACUACUGCAACUAGACGTT against INS, the median seed-adjusted z-score was inactive: 0. GCAACUAUCGUACCCAGAUTT against TMED4: the median seed-adjusted z-score was inactive: -0.895. In the case of GGAAAAGCAGAUAACCCAATT against CIB2, the median seed-adjusted z-score was inactive: 0.569. The same measure for “CAGAGAAACGAGUCUUUAATT against ST6GALNAC5”: inactive: -0.0321; for GGACUCAGACGAGUUUUAUTT against CYP11B1: inactive: -0.199.

Turning to GGUGACCACUCGGACAGUATT against ARVCF, the median seed-adjusted z-score is inactive: 0.372. As for GCCUACAUCUUCAAUAGCATT against SPPL3, the median seed-adjusted z-score was inactive: 0.652. The value for ACAAAGAACUGACCCUGCATT against ZNF296 was inactive: -0.00618; that for GGUUCAACUUCUCAACAGATT against GGT5 was inactive: 0.307; that for GGUUUGAAAUGCUGCCCAATT against LRRN2 was inactive: 0.324. Take GCAUGCUGAUUACAAGAUATT against LEFTY2: the median seed-adjusted z-score is inactive: -0.33.

GAGCUGACGUGUACUCAUATT against USP5: the median seed-adjusted z-score is inactive: 0.596.

As for GGGCGAAAGUUCACUUAGATT against SMARCA5, the median seed-adjusted z-score is inactive: -0.0804. Consider CACCGCUACUGGUUGAGAATT against PIP5K3, for which the median seed-adjusted z-score is inactive: 0.00523. Regarding CCCUUACAGAAGCCCGAUATT against KIF21A, the median seed-adjusted z-score is inactive: 0.53.

Consider CAGAUUCCCUCAGACCUUUTT against MAGED1, for which the median seed-adjusted z-score is inactive: 0.524. Consider GCGGUUCCCUAGAGAAUCATT against ARSE, for which the median seed-adjusted z-score was inactive: 0.705. Consider CAAGGGUAUUAUUCGAGUUTT against PPP1R3A, for which the median seed-adjusted z-score is inactive: -0.241. With GCCUCAUGUAAAACCCUAUTT against MYLK, the median seed-adjusted z-score was inactive: 0.0226. GCCUCUACCUCUUCGAAAATT against CLEC11A: the median seed-adjusted z-score was active: -1.1. Take GACCCGCUUUCUACCGUUATT against ENTPD4: the median seed-adjusted z-score is inactive: 0.324. The value for GGAGGAAUCUCGAAUGCGATT against CNOT1 was active: 1.2; that for GACUUAAUCACUAACGAGATT against SULF1 was inactive: -0.128. Turning to CCAGUGCUAUGAGGACAUUTT against CORO1B, the median seed-adjusted z-score was inactive: 0.405. The value for CACCGACUCUGAGUGUCUATT against KCTD11 was inactive: 0.374; that for GGAUGGAAUCUACAGGCUUTT against GUCY2F was inactive: 0.188. CUGUCGCUAAUGAAGUAUATT against TRDMT1: the median seed-adjusted z-score was inactive: 0. Consider CCCUAAAGAUGGUGCGGAATT against DYRK2, for which the median seed-adjusted z-score was inactive: 0.

For the sequence GCAUCUCUGCGGUCACCAATT against CACNA1I, the median seed-adjusted z-score was inactive: 0.346. For the sequence CCAGUUACGCGUUCCCAUUTT against ZNF479, the median seed-adjusted z-score is inactive: -0.269. GAACGGCAACCUCUACUUUTT against L1CAM: the median seed-adjusted z-score was inactive: 0.

Take GAGGCAUUCUUUGAGCGAATT against ZNF554: the median seed-adjusted z-score was inactive: 0.0311. On to CCAGUCAGUUGACCAUUGATT against BRF1, for which the median seed-adjusted z-score was inactive: -0.261.

On to GAAUCCUGAUGGUAUCAAUTT against CDH11, for which the median seed-adjusted z-score was inactive: -0.457.

In the case of CGAGCGUACAGGUCAAUUATT against GATM, the median seed-adjusted z-score is inactive: 0.182. For GGAAGCUACUUUCAAGCGATT against TAGAP, the median seed-adjusted z-score was inactive: 0.

With GUAUAGACAUCUUCACUAATT against CP, the median seed-adjusted z-score was inactive: 0.188. With ACAAUGAUCUGGAGAAACATT against HMHA1, the median seed-adjusted z-score is inactive: -0.285. In the case of GCACAAGGAGUGACCUUCUTT against GCHFR, the median seed-adjusted z-score is inactive: -0.559.

Take GUCUGGAGAUGAUCGACCATT against HPD: the median seed-adjusted z-score was inactive: -0.126. Consider GGAAGGAAAUCUCAACUAUTT against CDH4, for which the median seed-adjusted z-score is inactive: 0. The value for UGAAUUACCUGGACCGUUUTT against CCND2 was inactive: -0.819. The same measure for UGAAAUGGAUGAAAACCUATT against SNAP25: inactive: 0. With GAAGGAGUUUGACAUUAAUTT against MYH6, the median seed-adjusted z-score was inactive: 0. As to CGACAUAUGUCUGAUAACATT against SFRS15, the median seed-adjusted z-score is inactive: 0.22. The value for AGGCAAAGACGGAACAACATT against TRIM69 was inactive: 0.214.

Regarding GGUUGGUCUUUAUUGAGCATT against CFD, the median seed-adjusted z-score is inactive: -0.0604. Consider GGAAUCAAGAAGUUACUAATT against NSF, for which the median seed-adjusted z-score is inactive: -0.0728. For GCAGAUUGCUGGUCACAAATT against PLA2G2F, the median seed-adjusted z-score was inactive: 0.508. The value for AGACACUUCUACAAGCCCATT against DGAT1 was inactive: 0.148; that for GGAUAAACUUUAUACUGGUTT against MMAA was inactive: -0.664; that for CCCUGAUGGAAAACGCAUATT against FLT1 was inactive: 0.407. As to GCUUUAACCUGGGCAUGUUTT against NAT6, the median seed-adjusted z-score was inactive: -0.327. The value for GCCUCUCAGUGUCUGACUUTT against SRC was inactive: -0.0246; that for GAAACAUCCUUGGUACCUATT against BRSK1 was inactive: -0.0495. Turning to CCUCAAGCAGAAUCUAAGATT against PTN, the median seed-adjusted z-score is inactive: -0.174. For GCAAUUUCCUGAUCAAAUUTT against EXTL2, the median seed-adjusted z-score is inactive: -0.0568.
